Assay results taken from US20070281992A1, “COMBINATION OF GYRASE B INHIBITORS AND PROTEIN SYNTHESIS INHIBITORS AND USES THEREOF” (priority 2006, published 2007).
For some assays here: At least one read-out could not be matched to a standard name with certainty. For some assays here: At least one structure is not confirmed: it was looked up by name or label, or the drawing left a doubt.

How the values were obtained:
[1] = test system: Staphylococcus aureus 0100 (ATCC 29213); assay: MIC assay, quality control strain S. aureus ATCC 29213; type: cell-based; details: repeat runs 22FEB06-09MAR06, combinations at 2.5:1
Protocol: (§1) Antibiotics: novobiocin, tetracycline, minocycline, oxacillin, and vancomycin were all purchased from Sigma-Aldrich. Linezolid was obtained from Pfizer, Inc. Novobiocin/tetracycline and novobiocin/minocycline were tested in a 2.5:1 ratio to mimic the serum levels. (Vavra, J. J., 1967, Development of resistance to novobiocin, tetracycline, and novobiocin-tetracycline combinations in Staphylococcus aureus populations, J. Bacteriol 93(3):801). Compounds were tested across a concentration range consisting of 11 two-fold serial dilutions of test agent.
(§2) Stock solutions were prepared in sterile deionized water; novobiocin stock concentration was 1600 μg/mL and all other drugs stock solutions were prepared at 640 μg/mL. The stock solutions were allowed to sit at room temperature for one hour to auto-sterilize prior to use in the test. All compounds were in solution in water. The control agent was vancomycin hydrochloride, Sigma Chemical Lot # 015K0825.
(§3) The test organisms for the assay were 52 MSSA, 52 MRSA, 8 VISA, 7 VISE, and 3 LRSA isolates. Quality control strains included Staphylococcus aureus 0100 (ATCC 29213) and Enterococcus faecalis (ATCC 29212).
(§4) The MIC assay was performed according to published NCCLS guidelines. […]

[2] = test system: Enterococcus faecalis (ATCC 29212); assay: MIC assay, quality control strain E. faecalis ATCC 29212; type: cell-based; details: repeat runs 22FEB06-09MAR06, combinations at 2.5:1
Protocol: as §1, §2, §3, §4

[3] = test system: Staphylococcus aureus 0100 (ATCC 29213); details: S. aureus ATCC 29213; accepted quality control range; cited from earlier work
[4] = test system: Enterococcus faecalis (ATCC 29212); details: E. faecalis ATCC 29212; accepted quality control range; cited from earlier work
[5] = test system: Methicillin-Susceptible Staphylococcus aureus Isolates; assay: MIC assay (NCCLS broth dilution), MSSA clinical isolates; type: cell-based; details: 52 MSSA isolates; Mueller Hinton II Broth; combinations at 2.5:1, given as NB/partner
Protocol: as §1, §2, §3, §4

[6] = test system: Unconfirmed Vancomycin-intermediate Staphylococcus aureus Isolates; assay: MIC assay (NCCLS broth dilution), unconfirmed VISA isolates; type: cell-based; details: 6 unconfirmed VISA isolates (vancomycin MIC 4 ug/ml); combinations at 2.5:1
Protocol: as §1, §2, §3, §4

[7] = test system: Vancomycin-intermediate Staphylococcus epidermidis Isolates; assay: MIC assay (NCCLS broth dilution), VISE isolates; type: cell-based; parameters: unit not given beside the values; details: 4 VISE isolates; combinations at 2.5:1
Protocol: as §1, §2, §3, §4

[8] = test system: Linezolid-Resistant Staphylococcus aureus Isolates; assay: MIC assay (NCCLS broth dilution), LRSA isolates; type: cell-based; parameters: unit not given beside the values; details: 3 LRSA isolates; combinations at 2.5:1
Protocol: as §1, §2, §3, §4

| Structure (SMILES) | Minimal Inhibitory Concentration, quality control [1] | Minimal Inhibitory Concentration, quality control [2] | CLSI QC Range (MIC) [3] | CLSI QC Range (MIC) [4] | MIC Range [5] | MIC Range [6] | MIC Range [7] | MIC Range [8] |
| --- | --- | --- | --- | --- | --- | --- | --- | --- |
| CC(=O)NC[C@H]1CN(c2ccc(N3CCOCC3)c(F)c2)C(=O)O1 [LZD, linezolid] | 2 µg/mL | – | – | – | – | – | – | – |
| CN(C)c1ccc(O)c2c1C[C@H]1C[C@H]3[C@H](N(C)C)C(O)=C(C(N)=O)C(=O)[C@@]3(O)C(O)=C1C2=O [MI, minocycline] | 0.06 µg/mL | 1 µg/mL | 0.06 to 0.5 µg/mL | 1 to 4 µg/mL | – | – | – | – |
| CN(C)[C@@H]1C(O)=C(C(N)=O)C(=O)[C@@]2(O)C(O)=C3C(=O)c4c(O)cccc4[C@@](C)(O)[C@H]3C[C@@H]12 [TE, tetracycline] | – | – | 0.12 to 1 µg/mL | 8 to 32 µg/mL | .25->16 | 0.6->16 | 0.25->16 | 0.5->16 |
